Publication PMC9136845
Results are given in words; binding and its absence hold for the method and conditions named. Binding seen in cells or lysates may run through a third protein. These calls come from enrichment with a bait or labelling near it, and not all partners need be listed.

Columns and labels:
[1] = molecular target: T1, embryonic ectoderm development (EED) GFP-fusion protein, O75530; assay: affinity purification with mass spectrometry; GFP enrichment with antifouling pSB-co-(aGFP)8% beads (~93 million beads) from 1 mg nuclear extract of EED-GFP HeLa cells, WT HeLa nuclear extract as control; 90 min at 4 °C in nuclei lysis buffer (420 mM NaCl, 20 mM HEPES/KOH pH 7.9, 0.1% NP40); on-bead trypsin digestion, label-free nanoLC-MS/MS, triplicates; details: remark: other sources report otherwise
[2] = molecular target: T1, embryonic ectoderm development (EED) …; assay: affinity purification with mass spectrometry; GFP enrichment with Chromotek GFP-Trap magnetic beads (~93 million beads, 50 μL slurry) from 1 mg nuclear extract of EED-GFP HeLa cells, WT HeLa nuclear extract as control; 90 min at 4 °C in nuclei lysis buffer (420 mM NaCl, 20 mM HEPES/KOH pH 7.9, 0.1% NP40); on-bead trypsin digestion, label-free nanoLC-MS/MS, triplicates; details: remark: other sources report otherwise

- binding [1]: binds
- binding [2]: binds
B1: RBBP7, Q16576 1-425 (protein)
chain: MASKEMFEDTVEERVINEEYKIWKKNTPFLYDLVMTHALQWPSLTVQWLPEVTKPEGKDYALHWLVLGTHTSDEQNHLVVARVHIPNDDAQFDASHCDSDKGEFGGFGSVTGKIECEIKINHEGEVNRARYMPQNPHIIATKTPSSDVLVFDYTKHPAKPDPSGECNPDLRLRGHQKEGYGLSWNSNLSGHLLSASDDHTVCLWDINAGPKEGKIVDAKAIFTGHSAVVEDVAWHLLHESLFGSVADDQKLMIWDTRSNTTSKPSHLVDAHTAEVNCLSFNPYSEFILATGSADKTVALWDLRNLKLKLHTFESHKDEIFQVHWSPHNETILASSGTDRRLNVWDLSKIGEEQSAEDAEDGPPELLFIHGGHTAKISDFSWNPNEPWVICSVSEDNIMQIWQMAENIYNDEESDVTTSELEGQGS
